# Experimental data published in patent US20170260531.
# Chains of the proteins cited; added tags and fusions are not shown. A line that says so, or that is headed by a name, gives the form on record, which may keep a tag or linker. Residues count along the entry.
# UniProt P01127, 82-190: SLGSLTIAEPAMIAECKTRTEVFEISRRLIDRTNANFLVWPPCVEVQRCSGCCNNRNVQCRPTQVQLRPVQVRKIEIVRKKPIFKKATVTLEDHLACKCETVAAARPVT
# VEGF-121 (Homo sapiens), one chain, as listed by the source: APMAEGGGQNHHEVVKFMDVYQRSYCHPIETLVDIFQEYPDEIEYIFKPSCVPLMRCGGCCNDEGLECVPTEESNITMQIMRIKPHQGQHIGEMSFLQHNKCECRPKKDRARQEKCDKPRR
# VEGF-165 (Homo sapiens), one chain, as listed by the source: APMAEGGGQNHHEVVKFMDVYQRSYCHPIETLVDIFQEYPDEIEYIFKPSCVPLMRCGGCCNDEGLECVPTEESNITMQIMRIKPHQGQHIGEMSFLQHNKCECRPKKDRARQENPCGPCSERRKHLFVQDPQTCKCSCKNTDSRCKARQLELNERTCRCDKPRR
# For some assays here: Negatives hold for the conditions tested. For some assays here: The exact form of at least one protein or probe is not confirmed. For some assays here: Weaker means in comparison with the reference protein, sequence or condition of that experiment.
# Key:
# VEGF-121 (Homo sapiens) [1] = test: filter binding; details: purified recombinant protein, protein details: R&D Systems, single-stranded DNA; for binding result: NB; for Kd: NB up to 100 nM
# VEGF-165 (Homo sapiens) = test: filter binding; details: Nap-dU at all P positions; NB up to 100 nM; purified recombinant protein; label: 5'-32P; single-stranded DNA
# PDGF-BB (Homo sapiens) [2] = target: PDGF-BB (Homo sapiens) (UniProt P01127); test: structure; details: Bn-dU at 1,2,7,16,20; Ib-dU 8; Pe-dU 17; Th-dU 18; Heg at 5; 2'-OMe at A3,A11,A21,G24; PDB 4HQX, 2.30 A; about 20-50-fold weaker binding than SL5; purified recombinant protein; single-stranded DNA; variant of 4149-8_38
# PDGF-BB (Homo sapiens) [3] = target: PDGF-BB (Homo sapiens) (UniProt P01127); test: activity in cells; details: Bn-dU; Nap-dU; 2'-OMe; C3; Heg; PDGFRb phosphorylation in Hs27; purified recombinant protein; protein details: R&D Systems; single-stranded DNA
# PDGF-BB (Homo sapiens) [4] = target: PDGF-BB (Homo sapiens) (UniProt P01127); test: filter binding; details: two 4149-8_260 units head-to-tail joined by five Heg; Bn-dU, Pe-dU, Th-dU, 2'-OMe as in 4149-8_260; homodimer construct; purified recombinant protein; label: 5'-32P; single-stranded DNA; variant of 4149-8_260 (SL5)
# VEGF-121 (Homo sapiens) [5] = test: activity in cells; details: Bn-dU; MBn-dU; Nap-dU; 2'-OMe; C3; Heg; VEGFR2 phosphorylation in HUVEC; VEGF isoform not specified; purified recombinant protein; protein details: R&D Systems; single-stranded DNA
sequence,measurement,setting,value
AGCCGTTAAGTGCTTTAGATTTAAATGGA [4867-31_100],binding result,"VEGF-121 (Homo sapiens) [1]; Nap-dU at all P, C3 spacer at 8,17,20",no binding
AGCCGTTCAAGTGCTTGTAGATTTAAATGGA [4867-31_103],binding result,VEGF-121 (Homo sapiens) [1]; Nap-dU at all P,no binding
AGCCGTTCAAGTGCTTGTAGGATTTAAA [4867-31_54],Kd,VEGF-121 (Homo sapiens) [1]; Nap-dU at all P,> 100 nM
AGCCGTTCAAGTGCTTTAGGATTTAAATGGA [4867-31_102],binding result,"VEGF-121 (Homo sapiens) [1]; Nap-dU at all P positions, label: 5'-32P, variant of 4867-31_43",no binding
CAGCCGTTCAAGTGCTTGTAGGATTTAAA [4867-31_47],Kd,VEGF-165 (Homo sapiens),> 100 nM
same,Kd,VEGF-121 (Homo sapiens) [1]; Nap-dU at all P,> 100 nM
CAGCCGTTCAAGTGCTTGTAGGATTTAAAT [4867-31_46],Kd,"VEGF-121 (Homo sapiens) [1]; Nap-dU at all P positions, label: 5'-32P",> 100 nM
TTACGTTACACGCGTTTATAGCG [4149-8_255 (SL4)],binding result,PDGF-BB (Homo sapiens) [2],binds more weakly
TTACGTTACACGCGTTTATAGCGCCGTTCAAGTGCTTTAGATTTAAATG [4149-8_320],IC50,PDGF-BB (Homo sapiens) [3],1 nM
TTACGTTACACGCGTTTATAGCGTTACGTTACACGCGTTTATAGCG [4149-8_337],Kd,PDGF-BB (Homo sapiens) [4],0.00379 nM
TTACGTTACCGCGTTTATAGCGCCGTTCAAGTGCTTGTAGGATTTAAATGG [4149-8_401],IC50,VEGF-121 (Homo sapiens) [5],0.7 nM
